Values quoted from earlier work, collected in US20190115105A1, “TANDEM DUPLICATOR PHENOTYPE (TDP) AS A DISTINCT GENOMIC CONFIGURATION IN CANCER AND USE THEREOF” (The Jackson Laboratory, priority 2016, published 2019).

Tested on: MCF-7
Settings: MCF-7, ER/PR+, TDP, TDP Score 0.385; GDSC data base; cited from earlier work

N.N.[Cl][Pt][Cl] [Cisplatin, cisplatin]
IC50 Ln (μM): 2.72 Ln (μM)
